Laboratory results reported in the supplement of paper PMC10849652.
The list shows a part of the results.

The chains behind the UniProt entries cited, without tags or fusion partners. Where a name states a change or a piece, a line headed by the entry shows the natural chain unless it says otherwise.
UniProt O60739, whole entry, looked up: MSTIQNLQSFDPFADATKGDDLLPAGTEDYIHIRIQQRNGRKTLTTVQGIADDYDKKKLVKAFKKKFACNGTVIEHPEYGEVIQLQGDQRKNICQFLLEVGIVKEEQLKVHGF
UniProt Q5VYK3, whole entry, looked up: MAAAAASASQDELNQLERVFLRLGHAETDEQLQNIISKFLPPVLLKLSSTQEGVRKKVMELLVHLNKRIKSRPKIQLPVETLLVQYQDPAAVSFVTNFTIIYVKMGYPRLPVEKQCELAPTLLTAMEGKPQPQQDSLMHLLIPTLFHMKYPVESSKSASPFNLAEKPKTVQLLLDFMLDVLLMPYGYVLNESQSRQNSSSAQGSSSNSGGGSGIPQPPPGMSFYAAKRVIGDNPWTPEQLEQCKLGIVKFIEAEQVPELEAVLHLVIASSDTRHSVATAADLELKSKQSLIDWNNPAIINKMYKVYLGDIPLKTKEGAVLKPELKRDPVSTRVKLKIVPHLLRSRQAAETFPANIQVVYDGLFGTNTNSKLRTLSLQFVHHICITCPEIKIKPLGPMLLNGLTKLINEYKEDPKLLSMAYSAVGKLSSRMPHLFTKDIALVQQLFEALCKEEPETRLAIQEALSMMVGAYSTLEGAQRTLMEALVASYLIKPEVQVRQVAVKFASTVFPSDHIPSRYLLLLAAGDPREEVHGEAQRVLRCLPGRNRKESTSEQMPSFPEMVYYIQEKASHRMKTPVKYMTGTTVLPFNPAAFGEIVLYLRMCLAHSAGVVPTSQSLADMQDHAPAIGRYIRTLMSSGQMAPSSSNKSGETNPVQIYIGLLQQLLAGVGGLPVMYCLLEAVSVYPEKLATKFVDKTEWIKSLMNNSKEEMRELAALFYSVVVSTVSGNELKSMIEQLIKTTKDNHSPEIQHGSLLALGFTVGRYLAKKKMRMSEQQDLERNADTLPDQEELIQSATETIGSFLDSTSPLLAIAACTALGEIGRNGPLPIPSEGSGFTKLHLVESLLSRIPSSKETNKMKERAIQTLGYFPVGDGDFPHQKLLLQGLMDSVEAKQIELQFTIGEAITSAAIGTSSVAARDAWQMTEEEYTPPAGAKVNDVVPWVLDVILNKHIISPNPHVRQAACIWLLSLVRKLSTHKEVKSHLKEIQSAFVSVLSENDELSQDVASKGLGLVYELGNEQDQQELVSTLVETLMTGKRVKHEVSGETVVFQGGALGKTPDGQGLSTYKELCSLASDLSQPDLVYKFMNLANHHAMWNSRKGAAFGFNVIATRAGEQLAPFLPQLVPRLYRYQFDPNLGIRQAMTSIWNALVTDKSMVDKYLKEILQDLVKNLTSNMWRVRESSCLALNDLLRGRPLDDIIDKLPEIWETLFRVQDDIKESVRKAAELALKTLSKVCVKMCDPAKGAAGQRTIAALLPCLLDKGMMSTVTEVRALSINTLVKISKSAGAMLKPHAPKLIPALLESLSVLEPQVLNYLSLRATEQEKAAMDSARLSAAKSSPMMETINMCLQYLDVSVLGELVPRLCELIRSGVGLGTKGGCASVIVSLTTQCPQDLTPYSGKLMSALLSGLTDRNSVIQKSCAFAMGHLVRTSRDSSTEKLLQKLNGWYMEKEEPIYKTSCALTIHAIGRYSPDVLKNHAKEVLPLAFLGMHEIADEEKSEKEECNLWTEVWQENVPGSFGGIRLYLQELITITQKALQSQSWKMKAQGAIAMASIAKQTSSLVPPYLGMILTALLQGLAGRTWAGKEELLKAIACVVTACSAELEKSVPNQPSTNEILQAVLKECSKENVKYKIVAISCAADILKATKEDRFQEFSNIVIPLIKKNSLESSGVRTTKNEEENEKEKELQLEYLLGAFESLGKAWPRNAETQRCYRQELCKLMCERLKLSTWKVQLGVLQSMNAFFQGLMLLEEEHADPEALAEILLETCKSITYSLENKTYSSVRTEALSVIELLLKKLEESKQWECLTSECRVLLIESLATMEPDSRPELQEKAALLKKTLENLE
UniProt Q6V1X1: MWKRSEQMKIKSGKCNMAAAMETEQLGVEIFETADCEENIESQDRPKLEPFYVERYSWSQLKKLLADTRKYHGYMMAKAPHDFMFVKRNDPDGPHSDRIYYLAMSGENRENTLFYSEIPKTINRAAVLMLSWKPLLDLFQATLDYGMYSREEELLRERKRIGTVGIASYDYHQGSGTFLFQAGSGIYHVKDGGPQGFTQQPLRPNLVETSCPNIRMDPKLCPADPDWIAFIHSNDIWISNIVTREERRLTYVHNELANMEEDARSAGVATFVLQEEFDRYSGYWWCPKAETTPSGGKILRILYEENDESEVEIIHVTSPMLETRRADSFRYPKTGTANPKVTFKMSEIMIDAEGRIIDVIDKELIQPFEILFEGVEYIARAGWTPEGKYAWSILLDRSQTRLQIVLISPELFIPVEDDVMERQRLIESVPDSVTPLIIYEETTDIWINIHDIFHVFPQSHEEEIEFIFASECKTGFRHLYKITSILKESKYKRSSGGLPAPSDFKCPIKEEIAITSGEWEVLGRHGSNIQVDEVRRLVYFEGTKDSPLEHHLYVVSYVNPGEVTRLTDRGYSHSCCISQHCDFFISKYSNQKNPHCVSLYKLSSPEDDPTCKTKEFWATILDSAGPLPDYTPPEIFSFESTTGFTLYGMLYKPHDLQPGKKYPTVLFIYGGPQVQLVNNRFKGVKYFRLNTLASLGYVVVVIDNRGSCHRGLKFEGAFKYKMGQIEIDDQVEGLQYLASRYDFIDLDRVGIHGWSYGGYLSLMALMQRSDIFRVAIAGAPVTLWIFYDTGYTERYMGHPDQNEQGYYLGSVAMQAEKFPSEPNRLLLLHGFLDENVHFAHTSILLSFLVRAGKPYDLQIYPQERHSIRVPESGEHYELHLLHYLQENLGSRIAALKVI
UniProt Q8N3D4: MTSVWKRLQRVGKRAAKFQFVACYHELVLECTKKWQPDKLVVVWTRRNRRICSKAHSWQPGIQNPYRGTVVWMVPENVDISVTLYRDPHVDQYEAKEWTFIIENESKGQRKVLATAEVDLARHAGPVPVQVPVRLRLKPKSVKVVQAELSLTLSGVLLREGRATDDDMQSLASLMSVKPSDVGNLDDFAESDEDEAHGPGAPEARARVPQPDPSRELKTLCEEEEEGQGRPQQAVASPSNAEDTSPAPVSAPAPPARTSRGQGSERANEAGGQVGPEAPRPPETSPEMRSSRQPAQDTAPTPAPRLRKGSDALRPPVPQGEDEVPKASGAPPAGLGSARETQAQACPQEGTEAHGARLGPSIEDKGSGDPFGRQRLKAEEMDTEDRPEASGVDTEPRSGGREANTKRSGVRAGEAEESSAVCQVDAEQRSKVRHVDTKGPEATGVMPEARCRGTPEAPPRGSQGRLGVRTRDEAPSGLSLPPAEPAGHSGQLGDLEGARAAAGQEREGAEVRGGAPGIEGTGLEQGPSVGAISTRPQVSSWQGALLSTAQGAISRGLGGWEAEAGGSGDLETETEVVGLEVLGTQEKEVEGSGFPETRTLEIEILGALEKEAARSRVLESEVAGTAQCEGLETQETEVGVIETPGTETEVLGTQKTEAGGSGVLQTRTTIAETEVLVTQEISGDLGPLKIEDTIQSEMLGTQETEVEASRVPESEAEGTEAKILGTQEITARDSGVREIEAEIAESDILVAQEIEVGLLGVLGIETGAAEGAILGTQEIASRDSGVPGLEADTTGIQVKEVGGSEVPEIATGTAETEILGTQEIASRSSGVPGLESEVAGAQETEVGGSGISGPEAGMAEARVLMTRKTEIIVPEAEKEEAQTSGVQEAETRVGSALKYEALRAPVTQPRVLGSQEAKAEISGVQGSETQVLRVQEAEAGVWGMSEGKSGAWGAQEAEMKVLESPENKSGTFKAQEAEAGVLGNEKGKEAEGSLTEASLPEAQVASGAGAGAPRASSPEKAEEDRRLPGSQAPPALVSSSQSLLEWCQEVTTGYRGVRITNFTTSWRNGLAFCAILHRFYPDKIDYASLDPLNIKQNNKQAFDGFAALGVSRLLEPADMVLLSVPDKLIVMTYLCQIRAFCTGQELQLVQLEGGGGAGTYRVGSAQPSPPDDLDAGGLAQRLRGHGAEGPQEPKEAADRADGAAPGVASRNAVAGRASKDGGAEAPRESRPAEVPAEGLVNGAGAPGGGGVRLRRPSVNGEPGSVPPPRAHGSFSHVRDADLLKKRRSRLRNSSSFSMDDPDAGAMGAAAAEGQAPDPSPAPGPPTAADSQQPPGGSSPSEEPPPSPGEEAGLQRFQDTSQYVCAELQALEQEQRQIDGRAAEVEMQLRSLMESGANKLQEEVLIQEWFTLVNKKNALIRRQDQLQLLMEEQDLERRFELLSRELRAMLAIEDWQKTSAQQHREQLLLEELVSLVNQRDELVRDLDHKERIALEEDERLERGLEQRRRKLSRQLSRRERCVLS
UniProt Q99848: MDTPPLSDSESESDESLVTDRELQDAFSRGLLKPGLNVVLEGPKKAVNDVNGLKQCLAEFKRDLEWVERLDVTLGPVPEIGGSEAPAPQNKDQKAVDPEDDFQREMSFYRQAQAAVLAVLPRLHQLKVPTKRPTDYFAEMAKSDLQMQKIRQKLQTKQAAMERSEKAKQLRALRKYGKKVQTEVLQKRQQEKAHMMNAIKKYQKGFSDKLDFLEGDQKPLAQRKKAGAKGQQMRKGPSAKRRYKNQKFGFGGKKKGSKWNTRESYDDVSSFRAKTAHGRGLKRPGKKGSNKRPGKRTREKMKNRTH
UniProt P60981: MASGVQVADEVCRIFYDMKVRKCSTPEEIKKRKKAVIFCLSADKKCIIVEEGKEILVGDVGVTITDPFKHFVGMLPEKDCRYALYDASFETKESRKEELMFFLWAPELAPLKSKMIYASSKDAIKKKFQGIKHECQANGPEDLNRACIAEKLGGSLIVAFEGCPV
UniProt Q96FJ2, whole entry, looked up: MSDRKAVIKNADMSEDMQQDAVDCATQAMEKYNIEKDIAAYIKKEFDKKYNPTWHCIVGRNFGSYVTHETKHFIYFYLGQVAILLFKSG
UniProt Q6P1R4: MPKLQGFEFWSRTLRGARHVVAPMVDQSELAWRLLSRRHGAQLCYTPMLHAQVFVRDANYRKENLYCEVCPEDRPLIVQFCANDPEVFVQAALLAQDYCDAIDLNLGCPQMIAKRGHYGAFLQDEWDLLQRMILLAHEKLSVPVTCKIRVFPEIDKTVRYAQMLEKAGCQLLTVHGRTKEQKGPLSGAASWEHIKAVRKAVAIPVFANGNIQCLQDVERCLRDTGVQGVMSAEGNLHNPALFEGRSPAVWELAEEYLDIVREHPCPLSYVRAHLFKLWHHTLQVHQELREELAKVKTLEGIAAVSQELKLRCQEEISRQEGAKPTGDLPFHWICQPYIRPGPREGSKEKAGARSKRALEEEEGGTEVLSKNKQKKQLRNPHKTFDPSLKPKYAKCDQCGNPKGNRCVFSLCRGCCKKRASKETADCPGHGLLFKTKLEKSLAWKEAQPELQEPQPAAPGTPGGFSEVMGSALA
UniProt Q66K89: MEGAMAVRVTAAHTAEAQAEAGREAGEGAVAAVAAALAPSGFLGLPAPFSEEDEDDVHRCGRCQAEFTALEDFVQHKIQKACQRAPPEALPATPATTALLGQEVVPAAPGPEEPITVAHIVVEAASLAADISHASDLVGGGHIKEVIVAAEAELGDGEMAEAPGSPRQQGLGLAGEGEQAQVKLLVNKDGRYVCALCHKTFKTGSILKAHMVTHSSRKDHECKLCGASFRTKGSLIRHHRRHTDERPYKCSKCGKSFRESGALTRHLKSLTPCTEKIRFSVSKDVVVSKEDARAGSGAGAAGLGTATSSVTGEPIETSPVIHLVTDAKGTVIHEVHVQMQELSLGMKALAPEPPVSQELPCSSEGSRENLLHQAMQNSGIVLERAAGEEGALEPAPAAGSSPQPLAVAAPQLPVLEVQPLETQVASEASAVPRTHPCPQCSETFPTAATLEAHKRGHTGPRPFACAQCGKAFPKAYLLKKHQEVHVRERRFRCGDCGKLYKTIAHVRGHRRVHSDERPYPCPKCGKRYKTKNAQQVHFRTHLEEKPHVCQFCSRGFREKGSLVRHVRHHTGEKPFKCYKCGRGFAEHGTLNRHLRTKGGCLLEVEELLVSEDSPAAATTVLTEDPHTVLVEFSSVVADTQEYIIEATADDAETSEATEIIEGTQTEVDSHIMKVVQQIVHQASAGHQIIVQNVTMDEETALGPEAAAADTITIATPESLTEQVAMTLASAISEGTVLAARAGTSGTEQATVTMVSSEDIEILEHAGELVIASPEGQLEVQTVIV
UniProt Q92785, whole entry, looked up: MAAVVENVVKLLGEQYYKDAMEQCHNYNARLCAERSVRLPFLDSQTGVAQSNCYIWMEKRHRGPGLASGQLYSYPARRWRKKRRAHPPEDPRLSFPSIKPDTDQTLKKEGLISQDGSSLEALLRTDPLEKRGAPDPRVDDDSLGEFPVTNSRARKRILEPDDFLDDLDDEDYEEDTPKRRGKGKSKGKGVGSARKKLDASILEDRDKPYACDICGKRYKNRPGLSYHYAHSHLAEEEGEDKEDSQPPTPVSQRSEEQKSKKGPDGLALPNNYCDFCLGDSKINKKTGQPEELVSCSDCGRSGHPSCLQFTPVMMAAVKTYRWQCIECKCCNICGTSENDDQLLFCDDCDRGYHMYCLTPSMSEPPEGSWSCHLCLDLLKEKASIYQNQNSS

Compound: CC(=O)c1cnc2ccc(-c3cc(Cl)c(O)c(Cl)c3)nc2c1N[C@H]1CC[C@H](CN(C)C)CC1
Experiment: log2 fold change, soluble protein after heating vs DMSO (PISA); higher = thermal stabilisation; K562 lysate, 10 uM; active = over 0.2 and 3.5 SD of the protein, either way, in both replicates (recomputed)
How it was run: (§1)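 Thermal stability, expressed as log-two fold change relative to solvent controls, is given from duplicates. Crude K562 extract in PBS pH 7.4 with 1 mM MgCl2, at 1 mg/mL protein, was treated with 10 μM compound for 30 min and heated in aliquots for 3 min across 48°C-58°C. After pooling, adjustment to 0.5% NP-40 at 4°C and centrifugation at 21,000xg for 90 min, supernatant protein was measured by TMTpro 16plex LC-MS/MS with channel sums equalised.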

Target	log2 fold change
EIF1B (UniProt O60739)	inactive: 0.02
EEA1 (UniProt Q15075)	inactive: -0.007
DUS2 (UniProt Q9NX74)	inactive: -0.036
ECPAS (UniProt Q5VYK3)	inactive: -0.006
DYM (UniProt Q7RTS9)	inactive: -0.11
EI24 (UniProt O14681)	inactive: 0.04
DSG2 (UniProt Q14126)	inactive: 0
E2F3 (UniProt O00716)	inactive: -0.028
DRG1 (UniProt Q9Y295)	inactive: 0.001
ECE1 (UniProt P42892)	inactive: 0.009
DUS3L (UniProt Q96G46)	inactive: -0.003
EHMT2 (UniProt A2ABF8)	inactive: 0.002
EEF1AKMT2, A0A494BZY7	inactive: -0.038
DPP8 (UniProt Q6V1X1)	inactive: 0.035
DYNC1LI1 (UniProt Q9Y6G9)	inactive: 0.002
DPY19L1, A0A1B0GW05	inactive: -0.005

Compound: CC(C)(C)Cn1c(N)nc2ccc(-c3[nH]c(C(C)(C)C)nc3-c3ccc(F)cc3)nc21 [ralimetinib]
Experiment: as above
How it was run: as §1

Target	log2 fold change
EEF1D isoform 2 (UniProt P29692)	inactive: 0.007
DSN1 (UniProt Q9H410)	inactive: 0.011
EHBP1L1 (UniProt Q8N3D4)	inactive: 0.026
EBNA1BP2 (UniProt Q99848)	inactive: -0.001
EAPP (UniProt Q56P03)	inactive: -0.1
DSTN (UniProt P60981)	inactive: -0.004
EIF1AD (UniProt Q8N9N8)	inactive: 0.023
EHD1 (UniProt Q9H4M9)	inactive: -0.004
EEF1G isoform 2 (UniProt P26641)	inactive: -0.014
ECT2 (UniProt Q9H8V3)	inactive: -0.065
EHBP1 isoform 2 (UniProt Q8NDI1)	inactive: 0.01
DYNLT1 (UniProt P63172)	inactive: 0.017
DUSP3 (UniProt P51452)	inactive: -0.022
EEF1A1, A0A087WVQ9	inactive: -0.006
DPH5 isoform 5 (UniProt Q9H2P9)	inactive: -0.031
DUT (UniProt P33316)	inactive: 0.011
EEF1B2 (UniProt P24534)	inactive: -0.032
DYNLL2 (UniProt Q96FJ2)	inactive: -0.016
EDRF1 (UniProt Q3B7T1)	inactive: -0.011
DUS1L (UniProt Q6P1R4)	inactive: 0.001

Target	log2 fold change
E4F1 (UniProt Q66K89)	inactive: 0.132
DPF2 (UniProt Q92785)	inactive: 0.002
DPH2 (UniProt Q9BQC3)	inactive: 0
EIF1B (UniProt O60739)	inactive: -0.001
EEA1 (UniProt Q15075)	inactive: -0.014
DUS2 (UniProt Q9NX74)	inactive: 0.026
ECPAS (UniProt Q5VYK3)	inactive: 0.019
DYM (UniProt Q7RTS9)	inactive: -0.047
EI24 (UniProt O14681)	inactive: -0.069
DSG2 (UniProt Q14126)	inactive: 0.09
E2F3 (UniProt O00716)	inactive: 0.001
DRG1 (UniProt Q9Y295)	inactive: -0.013
ECE1 (UniProt P42892)	inactive: -0.02
DUS3L (UniProt Q96G46)	inactive: 0.023
EHMT2 (UniProt A2ABF8)	inactive: 0.011
EEF1AKMT2, A0A494BZY7	inactive: 0.009
DPP8 (UniProt Q6V1X1)	inactive: -0.022
DYNC1LI1 (UniProt Q9Y6G9)	inactive: 0
DPY19L1, A0A1B0GW05	inactive: -0.035
